The subject of this test is A549 lung cancer cell line. Kind of test: MTT anti-proliferative assay, lung cancer cell line A549. Type of test: cell-based. The note with it: Homo sapiens, A549, read-out: IC50 (µM) A549.

The structures appear in SMILES notation.

As to `CN[C@@H]1C[C@H]2O[C@@](C)([C@@H]1OC)n1c3ccccc3c3c4c(c5c6ccccc6n2c5c31)C(=O)NC4` [Staurosporine], the IC50 (in general, the midpoint of a concentration-inhibition curve) amounted to 4.29 ± 0.72 µM.

The values above are taken from article PMC9123247 (Drug Design, Development and Therapy, 2022).
